These are yes or no findings as the source states them, for the method shown. Binding seen in cells or lysates may run through a third protein. Some binding calls cover weakened binding; strength is not graded here.
Experiments:
[1] = biological target: FLAG-tagged STING (stimulator of IFN genes) (UniProt Q86WV6); assay: co-IP; FLAG-agarose immunoprecipitation of FLAG-STING from STING-293Trex cells induced with doxycycline (2 μg/ml, 24 hr), prior to DNA stimulation; immunoblot of precipitated proteins
[2] = biological target: FLAG-tagged STING (stimulator of IFN genes) (UniProt Q86WV6); assay: condition: only after transfection of DNA (5 μg/ml); co-IP; FLAG-agarose immunoprecipitation of FLAG-STING from STING-293Trex cells induced with doxycycline (2 μg/ml, 24 hr) and stimulated by transfection of 5 μg/ml DNA for the indicated times; immunoblot of precipitated proteins

Protein sequences, listed by entry. Tags and fused reporters are not part of them.
UniProt Q86WV6: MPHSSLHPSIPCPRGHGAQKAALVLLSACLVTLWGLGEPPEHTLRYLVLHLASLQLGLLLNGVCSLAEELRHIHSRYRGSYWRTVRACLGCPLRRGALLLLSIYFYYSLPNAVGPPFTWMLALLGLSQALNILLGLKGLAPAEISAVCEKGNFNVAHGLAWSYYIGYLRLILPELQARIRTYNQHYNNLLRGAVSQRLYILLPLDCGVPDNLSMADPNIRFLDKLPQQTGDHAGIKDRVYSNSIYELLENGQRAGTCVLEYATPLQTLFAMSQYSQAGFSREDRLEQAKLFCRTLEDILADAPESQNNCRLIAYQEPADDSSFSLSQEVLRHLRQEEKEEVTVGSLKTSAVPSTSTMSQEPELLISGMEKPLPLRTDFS

Substance: Ku70 (from UniProt P12956 1-609)
- binding [1]: binds
- binding [2]: no binding
